The supplement of paper PMC12823440, “Inhibitors supercharge kinase turnover through native proteolytic circuits” (Nature, 2025)
Structures can show the parent of a compound that is named as a salt. Some of the results follow. The calls rarely recur for the same compound in another form.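 Kinases were expressed as nanoluciferase fusions in K562 cells and luminescence was read every 4 h between 2 and 18 h as percent of control, DMSO set to 100% and a positive control to 0%. A time point counts as decreased when the signal drops significantly (2 sigma). The hit call is the authors' own, does not follow from the count of time points alone, and its rule is not shown.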

By UniProt entry, the sequences of proteins in these tests, tags left out. Where a name states a change or a piece, a line headed by the entry shows the natural chain unless it says otherwise.
UniProt P29317, whole entry: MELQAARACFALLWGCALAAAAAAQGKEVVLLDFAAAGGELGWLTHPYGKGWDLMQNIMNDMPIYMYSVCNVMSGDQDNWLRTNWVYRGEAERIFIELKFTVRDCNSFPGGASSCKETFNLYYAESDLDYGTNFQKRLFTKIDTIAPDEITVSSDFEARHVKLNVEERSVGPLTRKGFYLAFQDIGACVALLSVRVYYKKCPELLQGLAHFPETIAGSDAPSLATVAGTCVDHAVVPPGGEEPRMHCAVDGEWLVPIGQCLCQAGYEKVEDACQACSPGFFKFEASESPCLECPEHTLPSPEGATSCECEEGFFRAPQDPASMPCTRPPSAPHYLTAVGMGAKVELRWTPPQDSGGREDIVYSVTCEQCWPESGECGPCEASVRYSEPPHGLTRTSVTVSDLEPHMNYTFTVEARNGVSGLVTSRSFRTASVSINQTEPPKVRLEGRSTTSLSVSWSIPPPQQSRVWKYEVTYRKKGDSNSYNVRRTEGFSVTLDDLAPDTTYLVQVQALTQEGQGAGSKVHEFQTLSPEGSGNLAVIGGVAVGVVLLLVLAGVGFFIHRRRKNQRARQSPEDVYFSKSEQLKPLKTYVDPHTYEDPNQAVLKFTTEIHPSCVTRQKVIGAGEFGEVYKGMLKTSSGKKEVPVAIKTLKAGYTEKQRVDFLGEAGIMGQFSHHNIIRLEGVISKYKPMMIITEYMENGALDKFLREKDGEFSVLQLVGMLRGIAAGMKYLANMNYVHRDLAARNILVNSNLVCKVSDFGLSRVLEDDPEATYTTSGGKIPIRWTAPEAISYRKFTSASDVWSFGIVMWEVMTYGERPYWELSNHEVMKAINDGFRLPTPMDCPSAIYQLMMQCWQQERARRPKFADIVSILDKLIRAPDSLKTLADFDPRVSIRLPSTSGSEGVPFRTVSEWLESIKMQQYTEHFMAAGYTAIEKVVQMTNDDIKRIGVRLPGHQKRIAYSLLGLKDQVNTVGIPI
UniProt P21802, whole entry, looked up: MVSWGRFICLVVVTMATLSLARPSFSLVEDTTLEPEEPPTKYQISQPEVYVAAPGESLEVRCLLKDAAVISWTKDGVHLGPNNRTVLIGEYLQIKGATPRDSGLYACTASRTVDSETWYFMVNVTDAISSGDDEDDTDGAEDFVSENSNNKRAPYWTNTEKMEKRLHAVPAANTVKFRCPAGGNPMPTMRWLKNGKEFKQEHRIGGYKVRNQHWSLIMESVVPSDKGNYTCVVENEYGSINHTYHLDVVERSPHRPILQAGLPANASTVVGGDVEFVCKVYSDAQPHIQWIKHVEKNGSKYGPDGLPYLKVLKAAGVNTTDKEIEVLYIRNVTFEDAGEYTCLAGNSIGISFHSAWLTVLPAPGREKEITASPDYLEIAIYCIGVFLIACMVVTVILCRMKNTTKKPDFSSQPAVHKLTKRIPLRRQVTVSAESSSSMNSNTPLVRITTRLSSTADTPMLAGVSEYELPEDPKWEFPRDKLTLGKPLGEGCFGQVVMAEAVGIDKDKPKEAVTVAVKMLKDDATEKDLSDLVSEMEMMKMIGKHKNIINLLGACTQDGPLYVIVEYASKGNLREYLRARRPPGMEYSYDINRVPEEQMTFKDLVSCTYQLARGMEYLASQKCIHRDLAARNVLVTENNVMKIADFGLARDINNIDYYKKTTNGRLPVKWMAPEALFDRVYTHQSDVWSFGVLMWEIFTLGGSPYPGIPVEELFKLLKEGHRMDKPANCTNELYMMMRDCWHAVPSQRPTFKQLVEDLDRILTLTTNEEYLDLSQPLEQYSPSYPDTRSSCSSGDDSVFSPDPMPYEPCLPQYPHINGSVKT
UniProt P22607, whole entry, looked up: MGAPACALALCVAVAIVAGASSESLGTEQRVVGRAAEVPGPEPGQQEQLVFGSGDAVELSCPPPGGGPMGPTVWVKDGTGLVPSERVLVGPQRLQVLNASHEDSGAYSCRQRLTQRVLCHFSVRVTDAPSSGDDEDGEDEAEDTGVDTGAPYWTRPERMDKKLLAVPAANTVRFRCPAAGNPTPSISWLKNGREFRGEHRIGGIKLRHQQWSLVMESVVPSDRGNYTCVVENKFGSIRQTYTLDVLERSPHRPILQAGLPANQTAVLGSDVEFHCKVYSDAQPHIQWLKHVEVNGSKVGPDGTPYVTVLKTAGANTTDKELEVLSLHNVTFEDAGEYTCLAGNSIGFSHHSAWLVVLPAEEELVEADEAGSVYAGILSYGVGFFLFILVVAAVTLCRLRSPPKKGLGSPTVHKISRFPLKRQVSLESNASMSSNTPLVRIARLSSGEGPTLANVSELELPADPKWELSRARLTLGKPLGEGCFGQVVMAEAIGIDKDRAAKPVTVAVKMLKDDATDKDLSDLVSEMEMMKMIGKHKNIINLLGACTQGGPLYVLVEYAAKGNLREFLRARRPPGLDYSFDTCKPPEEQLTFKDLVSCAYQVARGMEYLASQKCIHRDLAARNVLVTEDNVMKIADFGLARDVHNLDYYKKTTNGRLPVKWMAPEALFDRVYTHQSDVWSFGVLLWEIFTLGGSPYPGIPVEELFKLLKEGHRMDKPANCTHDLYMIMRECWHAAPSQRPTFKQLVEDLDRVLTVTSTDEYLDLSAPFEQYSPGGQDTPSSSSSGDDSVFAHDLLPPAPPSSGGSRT
UniProt P36888, whole entry: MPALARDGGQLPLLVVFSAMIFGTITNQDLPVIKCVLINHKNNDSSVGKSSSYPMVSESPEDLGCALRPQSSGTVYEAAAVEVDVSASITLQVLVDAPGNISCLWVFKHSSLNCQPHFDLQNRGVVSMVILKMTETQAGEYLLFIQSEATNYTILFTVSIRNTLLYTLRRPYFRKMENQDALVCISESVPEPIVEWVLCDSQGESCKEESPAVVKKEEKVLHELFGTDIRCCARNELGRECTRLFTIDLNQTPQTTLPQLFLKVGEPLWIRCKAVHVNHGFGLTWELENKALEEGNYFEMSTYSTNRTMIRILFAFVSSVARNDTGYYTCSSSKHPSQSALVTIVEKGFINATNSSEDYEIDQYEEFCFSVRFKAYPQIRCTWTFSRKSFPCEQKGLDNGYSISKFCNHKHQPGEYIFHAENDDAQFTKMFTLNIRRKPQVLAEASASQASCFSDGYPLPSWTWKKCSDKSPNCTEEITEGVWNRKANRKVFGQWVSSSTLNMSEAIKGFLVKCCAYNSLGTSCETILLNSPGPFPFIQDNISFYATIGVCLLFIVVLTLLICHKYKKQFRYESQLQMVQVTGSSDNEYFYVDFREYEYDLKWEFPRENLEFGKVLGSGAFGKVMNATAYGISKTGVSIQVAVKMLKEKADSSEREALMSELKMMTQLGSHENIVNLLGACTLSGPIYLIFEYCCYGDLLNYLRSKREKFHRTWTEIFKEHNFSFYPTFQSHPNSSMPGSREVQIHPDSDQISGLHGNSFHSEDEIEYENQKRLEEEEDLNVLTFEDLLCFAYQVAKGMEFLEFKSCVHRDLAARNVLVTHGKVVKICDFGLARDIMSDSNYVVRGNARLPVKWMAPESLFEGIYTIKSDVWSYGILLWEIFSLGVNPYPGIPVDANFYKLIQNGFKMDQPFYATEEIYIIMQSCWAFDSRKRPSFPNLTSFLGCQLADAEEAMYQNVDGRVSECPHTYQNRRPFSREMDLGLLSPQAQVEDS
UniProt P06241, whole entry, looked up: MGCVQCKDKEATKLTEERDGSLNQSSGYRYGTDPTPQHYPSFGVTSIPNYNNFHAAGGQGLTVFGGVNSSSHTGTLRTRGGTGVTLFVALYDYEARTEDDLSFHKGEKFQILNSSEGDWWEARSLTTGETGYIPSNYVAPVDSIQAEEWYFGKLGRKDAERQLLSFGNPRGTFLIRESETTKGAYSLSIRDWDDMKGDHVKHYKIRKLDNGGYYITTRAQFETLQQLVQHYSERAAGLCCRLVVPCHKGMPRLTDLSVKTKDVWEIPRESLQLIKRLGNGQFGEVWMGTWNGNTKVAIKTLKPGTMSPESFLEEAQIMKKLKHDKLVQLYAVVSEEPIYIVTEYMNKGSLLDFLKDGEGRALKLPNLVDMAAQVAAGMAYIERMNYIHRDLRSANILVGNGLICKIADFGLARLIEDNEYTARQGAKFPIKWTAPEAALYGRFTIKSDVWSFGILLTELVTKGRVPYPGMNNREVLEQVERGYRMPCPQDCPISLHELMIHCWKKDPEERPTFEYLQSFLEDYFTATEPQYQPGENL
UniProt P49840: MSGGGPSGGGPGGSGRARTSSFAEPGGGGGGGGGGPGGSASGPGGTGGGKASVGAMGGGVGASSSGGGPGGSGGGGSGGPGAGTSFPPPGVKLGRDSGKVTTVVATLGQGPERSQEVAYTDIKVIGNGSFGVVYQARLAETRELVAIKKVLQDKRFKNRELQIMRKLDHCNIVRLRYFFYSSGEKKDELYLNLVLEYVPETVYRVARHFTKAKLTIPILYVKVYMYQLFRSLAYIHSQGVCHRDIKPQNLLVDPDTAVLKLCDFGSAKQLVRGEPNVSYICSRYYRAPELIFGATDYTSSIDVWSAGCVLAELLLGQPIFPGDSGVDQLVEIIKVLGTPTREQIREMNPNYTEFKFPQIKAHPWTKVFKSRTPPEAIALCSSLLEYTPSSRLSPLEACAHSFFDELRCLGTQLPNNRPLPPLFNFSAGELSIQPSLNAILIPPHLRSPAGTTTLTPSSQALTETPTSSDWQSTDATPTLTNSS
UniProt P14616: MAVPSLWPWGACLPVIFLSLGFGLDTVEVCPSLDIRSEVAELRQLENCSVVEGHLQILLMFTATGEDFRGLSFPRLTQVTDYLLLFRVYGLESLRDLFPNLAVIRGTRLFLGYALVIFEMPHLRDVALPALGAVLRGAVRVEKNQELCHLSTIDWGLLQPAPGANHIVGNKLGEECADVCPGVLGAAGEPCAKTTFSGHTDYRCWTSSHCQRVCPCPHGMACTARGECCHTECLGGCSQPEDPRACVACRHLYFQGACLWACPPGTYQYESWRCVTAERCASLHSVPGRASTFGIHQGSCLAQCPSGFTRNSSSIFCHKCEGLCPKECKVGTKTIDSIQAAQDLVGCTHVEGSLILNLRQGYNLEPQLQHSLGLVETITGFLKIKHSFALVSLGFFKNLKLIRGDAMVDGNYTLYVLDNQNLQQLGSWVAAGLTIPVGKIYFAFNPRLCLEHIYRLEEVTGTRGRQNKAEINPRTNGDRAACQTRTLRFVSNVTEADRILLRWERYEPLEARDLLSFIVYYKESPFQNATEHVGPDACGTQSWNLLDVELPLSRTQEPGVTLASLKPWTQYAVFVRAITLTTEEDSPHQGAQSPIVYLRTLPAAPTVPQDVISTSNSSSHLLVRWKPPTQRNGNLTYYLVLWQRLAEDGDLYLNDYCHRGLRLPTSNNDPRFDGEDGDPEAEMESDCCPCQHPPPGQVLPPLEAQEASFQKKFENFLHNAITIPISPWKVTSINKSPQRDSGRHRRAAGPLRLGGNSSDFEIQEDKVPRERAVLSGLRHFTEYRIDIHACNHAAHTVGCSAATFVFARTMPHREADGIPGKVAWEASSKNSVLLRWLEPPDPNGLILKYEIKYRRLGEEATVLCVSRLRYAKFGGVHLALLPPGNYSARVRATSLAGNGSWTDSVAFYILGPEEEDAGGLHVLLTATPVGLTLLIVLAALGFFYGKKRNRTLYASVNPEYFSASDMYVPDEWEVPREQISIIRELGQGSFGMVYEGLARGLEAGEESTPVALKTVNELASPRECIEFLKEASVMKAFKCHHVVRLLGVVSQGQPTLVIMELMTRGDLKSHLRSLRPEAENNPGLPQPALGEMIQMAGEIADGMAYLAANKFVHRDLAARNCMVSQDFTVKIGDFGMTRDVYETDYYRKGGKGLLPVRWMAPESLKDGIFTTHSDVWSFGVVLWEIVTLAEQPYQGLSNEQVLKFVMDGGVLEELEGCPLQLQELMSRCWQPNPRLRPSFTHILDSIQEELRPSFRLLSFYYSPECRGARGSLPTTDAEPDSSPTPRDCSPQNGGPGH

Tests used:
Assay in all cases: kinase-Nluc reporter destabilization hit call (1 = scored as downregulated) (binary); higher = compound decreases kinase abundance
Conditions in all cases: K562; 2-18 h
EGFR = EGFR (UniProt P00533)
EGFR_G719S = EGFR_G719S (UniProt P00533)
EGFR_G719S_T790M = EGFR_G719S_T790M (UniProt P00533)
EGFR_L718V = EGFR_L718V (UniProt P00533)
EGFR_L858R = EGFR_L858R (UniProt P00533)
EGFR_L861Q = EGFR_L861Q (UniProt P00533)
EGFR_T790M = EGFR_T790M (UniProt P00533)
EPHA2 = EPHA2 (UniProt P29317)
ERBB3 = ERBB3 (UniProt P21860)
[1] = target: ERBB4_R711C (clone: ERBB4_mut) (UniProt Q15303)
ERN1 = ERN1 (UniProt O75460)
FGFR1 = FGFR1 (UniProt P11362)
FGFR2 = FGFR2 (UniProt P21802)
FGFR3 = FGFR3 (UniProt P22607)
FGR = FGR (UniProt P09769)
FLT3 = FLT3 (UniProt P36888)
FYN = FYN (UniProt P06241)
GSK3A = GSK3A (UniProt P49840)
HER2 = HER2 (UniProt P04626)
INSRR = INSRR (UniProt P14616)

Measured: kinase-Nluc reporter destabilization hit call

O=[N+]([O-])c1ccc2c(c1)S(=O)(=O)C=C2 [Stattic] (2.5 µM)
inactive: EGFR 0 | EGFR_G719S 0 | EGFR_G719S_T790M 0 | EGFR_L718V 0 | EGFR_L858R 0 | EGFR_L861Q 0 | EGFR_T790M 0 | EPHA2 = 0 | ERBB3 = 0 | [1] 0 | ERN1 = 0 | FGFR1 = 0 | FGFR2 = 0 | FGFR3 = 0 | FGR 0 | FLT3 = 0 | FYN 0 | GSK3A 0 | HER2 = 0 | INSRR 0

Cc1cc(C)nc(NS(=O)(=O)c2ccc(NC(=S)NC(=O)COc3ccc(Br)cc3Cl)cc2)n1 (2.5 µM)
inactive: EGFR 0 | EGFR_G719S 0 | EGFR_G719S_T790M 0 | EGFR_L718V 0 | EGFR_L858R 0 | EGFR_L861Q 0 | EGFR_T790M 0 | EPHA2 = 0 | ERBB3 = 0 | [1] 0 | ERN1 = 0 | FGFR1 = 0 | FGFR2 = 0 | FGFR3 = 0 | FGR 0 | FLT3 = 0 | FYN 0 | GSK3A 0 | HER2 = 0 | INSRR 0

CC(=O)c1c(C)c2cnc(Nc3ccc(N4CCN(C(=O)CNc5cccc6c5C(=O)N(C5CCC(=O)NC5=O)C6=O)CC4)cn3)nc2n(C2CCCC2)c1=O (stereo not given) (10 µM)
inactive: EGFR 0 | EGFR_G719S 0 | EGFR_G719S_T790M 0 | EGFR_L718V 0 | EGFR_L858R 0 | EGFR_L861Q 0 | EGFR_T790M 0 | EPHA2 = 0 | ERBB3 = 0 | [1] 0 | ERN1 = 0 | FGFR1 = 0 | FGFR2 = 0 | FGFR3 = 0 | FGR 0 | FLT3 = 0 | FYN 0 | GSK3A 0 | HER2 = 0 | INSRR 0

Cc1ccc(C(=O)Nc2sc(Nc3ccccc3)nc2C(N)=O)cc1 (10 µM)
inactive: EGFR 0 | EGFR_G719S 0 | EGFR_G719S_T790M 0 | EGFR_L718V 0 | EGFR_L858R 0 | EGFR_L861Q 0 | EGFR_T790M 0 | EPHA2 = 0 | ERBB3 = 0 | [1] 0 | ERN1 = 0 | FGFR1 = 0 | FGFR2 = 0 | FGFR3 = 0 | FGR 0 | FLT3 = 0 | FYN 0 | GSK3A 0 | HER2 = 0 | INSRR 0

Cn1cc(-c2c[nH]c3ncnc(N4CCOCC4)c23)cc1C#N (10 µM)
inactive: EGFR 0 | EGFR_G719S 0 | EGFR_G719S_T790M 0 | EGFR_L718V 0 | EGFR_L858R 0 | EGFR_L861Q 0 | EGFR_T790M 0 | EPHA2 = 0 | ERBB3 = 0 | [1] 0 | ERN1 = 0 | FGFR1 = 0 | FGFR2 = 0 | FGFR3 = 0 | FGR 0 | FLT3 = 0 | FYN 0 | GSK3A 0 | HER2 = 0 | INSRR 0

C[C@H](Nc1ncnc2[nH]cnc12)c1cc2ccc(F)cc2nc1-c1ccccn1 (10 µM)
inactive: EGFR 0 | EGFR_G719S 0 | EGFR_G719S_T790M 0 | EGFR_L718V 0 | EGFR_L858R 0 | EGFR_L861Q 0 | EGFR_T790M 0 | EPHA2 = 0 | ERBB3 = 0 | [1] 0 | ERN1 = 0 | FGFR1 = 0 | FGFR2 = 0 | FGFR3 = 0 | FGR 0 | FLT3 = 0 | FYN 0 | GSK3A 0 | HER2 = 0 | INSRR 0

C=CC(=O)Nc1cc(Nc2nccc(-n3cc(CN(C)C)c(-c4ccccc4)n3)n2)c(OC)cc1N1CCOCC1 [Lazertinib] (10 µM)
inactive: EGFR 0 | EGFR_G719S 0 | EGFR_G719S_T790M 0 | EGFR_L718V 0 | EGFR_L858R 0 | EGFR_L861Q 0 | EGFR_T790M 0 | EPHA2 = 0 | ERBB3 = 0 | [1] 0 | ERN1 = 0 | FGFR1 = 0 | FGFR2 = 0 | FGFR3 = 0 | FGR 0 | FLT3 = 0 | FYN 0 | GSK3A 0 | HER2 = 0 | INSRR 0

CC(C)C[C@@H](C(=O)Nc1ccn(C[C@@H](O)CO)n1)N1CC(Oc2ccccc2Cl)=CC1=O [Dorzagliatin] (10 µM)
inactive: EGFR 0 | EGFR_G719S 0 | EGFR_G719S_T790M 0 | EGFR_L718V 0 | EGFR_L858R 0 | EGFR_L861Q 0 | EGFR_T790M 0 | EPHA2 = 0 | ERBB3 = 0 | [1] 0 | ERN1 = 0 | FGFR1 = 0 | FGFR2 = 0 | FGFR3 = 0 | FGR 0 | FLT3 = 0 | FYN 0 | GSK3A 0 | HER2 = 0 | INSRR 0

C[C@@H]1CCNC(=O)c2cc3ccc(C(=O)Nc4nc5ccccc5n4CCCN(C)C)cc3n21 (10 µM)
inactive: EGFR 0 | EGFR_G719S 0 | EGFR_G719S_T790M 0 | EGFR_L718V 0 | EGFR_L858R 0 | EGFR_L861Q 0 | EGFR_T790M 0 | EPHA2 = 0 | ERBB3 = 0 | [1] 0 | ERN1 = 0 | FGFR1 = 0 | FGFR2 = 0 | FGFR3 = 0 | FGR 0 | FLT3 = 0 | FYN 0 | GSK3A 0 | HER2 = 0 | INSRR 0

O=c1[nH]c(C2CCCN2)nc2c1oc1ccc(Cl)cc12 (stereo not given) [XL413 (hydrochloride)] (10 µM)
inactive: EGFR 0 | EGFR_G719S 0 | EGFR_G719S_T790M 0 | EGFR_L718V 0 | EGFR_L858R 0 | EGFR_L861Q 0 | EGFR_T790M 0 | EPHA2 = 0 | ERBB3 = 0 | [1] 0 | ERN1 = 0 | FGFR1 = 0 | FGFR2 = 0 | FGFR3 = 0 | FGR 0 | FLT3 = 0 | FYN 0 | GSK3A 0 | HER2 = 0 | INSRR 0

Cc1ccc(NC(=O)c2ccnc(C(F)(F)F)c2)cc1-c1cc(OCCO)nc(N2CCOCC2)c1 (10 µM)
inactive: EGFR 0 | EGFR_G719S 0 | EGFR_G719S_T790M 0 | EGFR_L718V 0 | EGFR_L858R 0 | EGFR_L861Q 0 | EGFR_T790M 0 | EPHA2 = 0 | ERBB3 = 0 | [1] 0 | ERN1 = 0 | FGFR1 = 0 | FGFR2 = 0 | FGFR3 = 0 | FGR 0 | FLT3 = 0 | FYN 0 | GSK3A 0 | HER2 = 0 | INSRR 0

O=C1/C(=C\c2ccc(Cl)cc2)C=C(c2ccccc2)N1c1ccc(O)cc1 (2.5 µM)
inactive: EGFR 0 | EGFR_G719S 0 | EGFR_G719S_T790M 0 | EGFR_L718V 0 | EGFR_L858R 0 | EGFR_L861Q 0 | EGFR_T790M 0 | EPHA2 = 0 | ERBB3 = 0 | [1] 0 | ERN1 = 0 | FGFR1 = 0 | FGFR2 = 0 | FGFR3 = 0 | FGR 0 | FLT3 = 0 | FYN 0 | GSK3A 0 | HER2 = 0 | INSRR 0

Pulled by compound from the entries so far (2):
O=[N+]([O-])c1ccc2c(c1)S(=O)(=O)C=C2 [Stattic] (2.5 µM)
inactive: EGFR 0 | EGFR_G719S 0 | EGFR_G719S_T790M 0 | EGFR_L718V 0 | EGFR_L858R 0 | EGFR_L861Q 0 | EGFR_T790M 0 | EPHA2 = 0 | ERBB3 = 0 | [1] 0 | ERN1 = 0 | FGFR1 = 0 | FGFR2 = 0 | FGFR3 = 0 | FGR 0 | FLT3 = 0 | FYN 0 | GSK3A 0 | HER2 = 0 | INSRR 0

Cn1cc(-c2c[nH]c3ncnc(N4CCOCC4)c23)cc1C#N (10 µM)
inactive: EGFR 0 | EGFR_G719S 0 | EGFR_G719S_T790M 0 | EGFR_L718V 0 | EGFR_L858R 0 | EGFR_L861Q 0 | EGFR_T790M 0 | EPHA2 = 0 | ERBB3 = 0 | [1] 0 | ERN1 = 0 | FGFR1 = 0 | FGFR2 = 0 | FGFR3 = 0 | FGR 0 | FLT3 = 0 | FYN 0 | GSK3A 0 | HER2 = 0 | INSRR 0

Following part:

CNc1nc(Nc2ccc(C(=O)N3CCOCC3)cc2OC)ncc1Cl (2.5 µM)
inactive: EGFR 0 | EGFR_G719S 0 | EGFR_G719S_T790M 0 | EGFR_L718V 0 | EGFR_L858R 0 | EGFR_L861Q 0 | EGFR_T790M 0 | EPHA2 = 0 | ERBB3 = 0 | [1] 0 | ERN1 = 0 | FGFR1 = 0 | FGFR2 = 0 | FGFR3 = 0 | FGR 0 | FLT3 = 0 | FYN 0 | GSK3A 0 | HER2 = 0 | INSRR 0

CCc1ccc(OCC(=O)Nc2ccc(F)c([N+](=O)[O-])c2)cc1 (10 µM)
inactive: EGFR 0 | EGFR_G719S 0 | EGFR_G719S_T790M 0 | EGFR_L718V 0 | EGFR_L858R 0 | EGFR_L861Q 0 | EGFR_T790M 0 | EPHA2 = 0 | ERBB3 = 0 | [1] 0 | ERN1 = 0 | FGFR1 = 0 | FGFR2 = 0 | FGFR3 = 0 | FGR 0 | FLT3 = 0 | FYN 0 | GSK3A 0 | HER2 = 0 | INSRR 0

C[C@@H]1COCCN1c1nc(-c2cnc(N)cc2C(F)F)nc(N2[C@H](C)COC[C@@H]2C)n1 (2.5 µM)
inactive: EGFR 0 | EGFR_G719S 0 | EGFR_G719S_T790M 0 | EGFR_L718V 0 | EGFR_L858R 0 | EGFR_L861Q 0 | EGFR_T790M 0 | EPHA2 = 0 | ERBB3 = 0 | [1] 0 | ERN1 = 0 | FGFR1 = 0 | FGFR2 = 0 | FGFR3 = 0 | FGR 0 | FLT3 = 0 | FYN 0 | GSK3A 0 | HER2 = 0 | INSRR 0

O=C(NC1CCOCC1)c1ccc(-c2cc(-c3c[nH]nc3-c3ccccn3)ccn2)cc1 (10 µM)
inactive: EGFR 0 | EGFR_G719S 0 | EGFR_G719S_T790M 0 | EGFR_L718V 0 | EGFR_L858R 0 | EGFR_L861Q 0 | EGFR_T790M 0 | EPHA2 = 0 | ERBB3 = 0 | [1] 0 | ERN1 = 0 | FGFR1 = 0 | FGFR2 = 0 | FGFR3 = 0 | FGR 0 | FLT3 = 0 | FYN 0 | GSK3A 0 | HER2 = 0 | INSRR 0
